Measured data: PubChem BioAssay AID652243 (Drosophila RNAi Screening Center, 2013)
In all, the deposit lists about 24,000 reagents; this is a random part of those that have a named target and a result. Over the whole deposit, 246 (1%) are marked active. 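Plates not normalised; calls are printed but the firefly/Renilla ratio behind them is not deposited; fold cut for lowering reported inconsistently.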 Raw values are not corrected between plates. The numbers tell different reagents against one gene apart. A plus sign joins genes that one reagent is predicted to hit. Not stated in the record: the amount of reagent.

Assay: 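Fly regulators of androgen-dependent reporter output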 (primary screen)
Cells: Drosophila S2R+ cells
Reagent: long dsRNA against Drosophila genes
Time to read-out: 72 h (48 h, then 24 h hormone)
Challenge: synthetic androgen R1881 at 10 nM for 24 h
Detection: 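Per-well raw luminescence of the androgen-driven firefly reporter and of the Renilla control, two replicates each, without normalisation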
Direction: firefly reporter light: higher = more light from androgen-responsive reporter; Renilla control light: higher = more constitutive control signal (cell number, transfection)
Active means: 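Hit when the log firefly-to-Renilla ratio dropped or increased by a fixed fold versus the mean of GFP or LacZ controls across duplicate plates; lowering cut given as 1.5 and as 3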
Meaning of the calls: active = hit: reporter lowered or raised; inactive = no hit

target	reagent	firefly reporter light, replicate 1	firefly reporter light, replicate 2	Renilla control light, replicate 1	Renilla control light, replicate 2	outcome
Gr10a (GeneID 117501)	1	1.28e6	4.33e5	2.01e6	7.13e5	inactive
Gr10a (GeneID 117501)	2	7.92e5	1.37e6	1.25e6	1.61e6	inactive
Gr10a (GeneID 117501)	3	4.27e5	3.09e5	6.17e5	5.25e5	inactive
ArgRS (GeneID 32539)	1	3.90e5	3.50e5	2.52e6	1.85e6	inactive
caps (GeneID 39493)	1	1.66e5	1.69e5	2.25e6	2.08e6	inactive
caps (GeneID 39493)	2	7.62e5	8.12e5	1.87e6	1.71e6	inactive
Fkbp59 (GeneID 47762)	1	1.62e5	1.21e5	1.15e6	8.14e5	inactive
Fkbp59 (GeneID 47762)	2	4.09e5	4.51e5	9.34e5	1.25e6	inactive
Taf1 (GeneID 40813)	1	1.54e5	1.46e5	1.94e6	1.95e6	inactive
Taf1 (GeneID 40813)	2	5.07e5	4.27e5	1.15e6	1.15e6	inactive
Taf1 (GeneID 40813)	3					inactive
Taf1 (GeneID 40813)	4					inactive
CG1986 (GeneID 31925)	1	2.33e5	2.84e5	1.90e6	1.70e6	inactive
CG1986 (GeneID 31925)	2	5.95e5	5.23e5	2.06e6	1.60e6	inactive
grsm (GeneID 41587)	1	1.59e5	1.97e5	2.47e6	2.83e6	inactive
grsm (GeneID 41587)	2	1.12e5	1.55e5	1.77e6	2.25e6	inactive
bbx + waw	1	51507	74207	4.83e5	5.61e5	inactive
bbx + waw	2	1.86e5	1.97e5	6.63e5	5.59e5	inactive
OtopLb (GeneID 33539)	1	8.21e5	9.90e5	1.50e6	1.78e6	inactive
OtopLb (GeneID 33539)	2	2.16e5	2.09e5	5.71e5	5.56e5	inactive
IntS14 (GeneID 33300)	1	6.34e5	6.38e5	2.67e6	2.19e6	inactive
Gr94a (GeneID 117339)	1	89143	64403	1.55e5	1.86e5	inactive
Drgx (GeneID 5740176)	1	1.30e5	94131	7.97e5	6.41e5	inactive
Drgx (GeneID 5740176)	2	89479	1.16e5	6.26e5	7.36e5	inactive
Drgx (GeneID 5740176)	3	3.81e5	3.45e5	1.74e6	1.66e6	inactive
exp (GeneID 36276)	1	98409	1.10e5	3.95e5	4.76e5	inactive
exp (GeneID 36276)	2	8.24e5	1.11e6	9.21e5	8.92e5	inactive
Boh1 (GeneID 338395)	1	97418	62218	6.25e5	6.66e5	inactive
AGO2 (GeneID 39683)	1	78251	1.46e5	2.57e5	2.05e5	inactive
lncRNA:CR33948 (GeneID 3772461)	1	9.55e5	8.50e5	1.81e6	1.83e6	inactive
chk (GeneID 35578)	1	8.43e5	9.07e5	1.17e6	1.34e6	inactive
CG3632 (GeneID 32589)	1	1.16e5	1.03e5	6.62e5	6.18e5	inactive
CG3632 (GeneID 32589)	2					inactive
CG3632 (GeneID 32589)	3					inactive
ord (GeneID 37687)	1	1.93e5	1.79e5	1.61e6	1.56e6	inactive
GABA-B-R3 (GeneID 33248)	1	82463	53058	6.55e5	5.76e5	inactive
GABA-B-R3 (GeneID 33248)	2	5.09e5	6.22e5	1.01e6	1.01e6	inactive
Cpr35B (GeneID 34846)	1	4.77e5	3.18e5	3.25e6	2.33e6	inactive
Cpr35B (GeneID 34846)	2	4.21e5	6.96e5	5.63e5	9.57e5	inactive
Cpr35B (GeneID 34846)	3	3.19e5	2.49e5	6.16e5	3.25e5	inactive
CG14621 (GeneID 33128)	1	1.90e5	2.22e5	7.50e5	5.71e5	inactive
CG14621 (GeneID 33128)	2	4.03e5	3.57e5	6.86e5	5.66e5	inactive
Gba1b (GeneID 318721)	1	5.66e5	7.51e5	2.10e6	1.53e6	inactive
CG33293 (GeneID 2768659)	1	1.18e6	9.92e5	2.09e6	2.41e6	inactive
CG31103 (GeneID 43030)	1	7.63e5	7.04e5	2.63e6	2.16e6	inactive
Ada (GeneID 41092)	1	2.10e5	2.18e5	3.48e6	3.25e6	inactive
CG6163 (GeneID 39274)	1	1.30e5	1.68e5	1.53e6	1.31e6	inactive
CG6163 (GeneID 39274)	2	3.33e5	2.18e5	4.92e5	3.87e5	inactive
Moca-cyp (GeneID 43374)	1	1.37e5	1.28e5	1.42e6	1.06e6	inactive
Moca-cyp (GeneID 43374)	2	5.64e5	3.89e5	5.32e5	6.29e5	inactive
Gs1l (GeneID 33653)	1	94568	1.17e5	7.95e5	7.02e5	inactive
peo (GeneID 47272)	1	1.16e6	7.45e5	2.49e6	1.83e6	inactive
Vps13D (GeneID 39448)	1	2.07e5	2.08e5	1.13e6	1.12e6	inactive
Vps13D (GeneID 39448)	2	2.03e5	2.11e5	1.54e6	1.21e6	inactive
Klp59D (GeneID 37674)	1	3.71e5	3.43e5	2.65e6	2.80e6	inactive
Klp59D (GeneID 37674)	2	2.32e5	2.81e5	3.64e5	3.94e5	inactive
Klp59D (GeneID 37674)	3	7.33e5	3.61e5	2.01e6	1.71e6	inactive
fsd (GeneID 36463)	1	2.24e5	2.35e5	1.28e6	1.29e6	inactive
Mi-2 + Su(Tpl)	1	1.56e5	1.64e5	5.05e5	4.86e5	inactive
brv3 (GeneID 31246)	1	1.66e5	1.59e5	2.98e6	2.40e6	inactive
brv3 (GeneID 31246)	2	1.19e6	1.03e6	1.16e6	1.08e6	inactive
lncRNA:CR33963 (GeneID 3885572)	1	6.30e5	5.61e5	1.55e6	1.07e6	inactive
CG30268 (GeneID 37610)	1	9.34e5	8.68e5	1.94e6	2.24e6	inactive
rasp (GeneID 44098)	1	98950	92242	1.18e6	1.47e6	inactive
CG2202 (GeneID 32014)	1	3.23e5	2.42e5	2.17e6	1.72e6	inactive
CG2202 (GeneID 32014)	2	6.52e5	7.11e5	6.00e5	8.47e5	inactive
CG15317 (GeneID 31898)	1	2.46e5	2.39e5	2.63e6	2.64e6	inactive
CG15317 (GeneID 31898)	2	2.73e5	2.97e5	7.12e5	5.99e5	inactive
Cpr97Ea (GeneID 43258)	1	1.02e5	1.70e5	1.26e6	2.45e6	inactive
Cpr97Ea (GeneID 43258)	2	2.52e5	2.89e5	3.27e5	3.82e5	inactive
brat (GeneID 35197)	1	7.83e5	8.02e5	1.72e6	1.54e6	inactive
brat (GeneID 35197)	2	7.39e5	9.24e5	1.53e6	2.03e6	inactive
brat (GeneID 35197)	3	5.34e5	4.44e5	1.38e6	1.52e6	inactive
CG13360 (GeneID 31025)	1	7.10e5	1.04e6	1.89e6	2.35e6	inactive
CG13360 (GeneID 31025)	2	4.53e5	8.26e5	1.09e6	1.79e6	inactive

10 neighbouring reagents already listed:
target	reagent	firefly reporter light, replicate 1	firefly reporter light, replicate 2	Renilla control light, replicate 1	Renilla control light, replicate 2	outcome
CG3632 (GeneID 32589)	1	1.16e5	1.03e5	6.62e5	6.18e5	inactive
CG3632 (GeneID 32589)	2					inactive
CG3632 (GeneID 32589)	3					inactive
ord (GeneID 37687)	1	1.93e5	1.79e5	1.61e6	1.56e6	inactive
GABA-B-R3 (GeneID 33248)	1	82463	53058	6.55e5	5.76e5	inactive
GABA-B-R3 (GeneID 33248)	2	5.09e5	6.22e5	1.01e6	1.01e6	inactive
Cpr35B (GeneID 34846)	1	4.77e5	3.18e5	3.25e6	2.33e6	inactive
Cpr35B (GeneID 34846)	2	4.21e5	6.96e5	5.63e5	9.57e5	inactive
Cpr35B (GeneID 34846)	3	3.19e5	2.49e5	6.16e5	3.25e5	inactive
CG14621 (GeneID 33128)	1	1.90e5	2.22e5	7.50e5	5.71e5	inactive
